PubChem BioAssay AID1224830, NIAID – 2016
Assay: 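Regulators of TLR4 signalling towards TNF-alpha in macrophage-like cells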 (primary screen). Cell system: human THP-1 monocytic leukaemia cells, TNF dual-luciferase reporter clone, PMA-differentiated to macrophage-like cells. Reagent: siRNA pool against human genes, 50 nM. Timing: LPS for 4 h, given about 3 days after siRNA transfection. Challenge: bacterial LPS (TLR4 ligand), 10 ng/ml. Detection: 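Ratio of firefly to renilla light, scaled to the plate median and expressed as a robust z-score per replicate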. Direction: TNF reporter robust z-score: higher = stronger TNF reporter response to LPS. Rule for the call: 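a well is active when its z-score exceeds 2.8 or falls below -1.5; control wells carry no call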.
Here is a random part of about 18,000 reagents tested. About 2,900 of all reagents (16%) were called active. 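Calls are made per well; low scores hint the gene aids the LPS response, high scores that it dampens it.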 Unmarked entries are inactive. Repeated entries: four replicate wells of each siRNA pool.

target | TNF reporter robust z-score
SYT11 | -0.58
SYT11 | -0.81
SYT11 | -0.12
SYT11 | 0.13
MAPK7 | 0.08
MAPK7 | 0.25
MAPK7 | -0.03
MAPK7 | 0.61
COX15 | 1.5
COX15 | 1.4
COX15 | 0.05
COX15 | 1.81
THEM4 | 0.46
THEM4 | 0.14
THEM4 | 0.39
THEM4 | -0.31
OR7G3 | -0.31
OR7G3 | 1.34
OR7G3 | -0.32
OR7G3 | 1.03
CD3D | 0.07
CD3D | 0.34
CD3D | -0.65
CD3D | -0.16
NLRP4 | -0.43
NLRP4 | 0.92
NLRP4 | 0.44
NLRP4 | -0.24
APOBEC3B | -0.14
APOBEC3B | -0.03
APOBEC3B | -0.51
APOBEC3B | -0.27

5 of these entries in another layout.
OR7G3
- TNF reporter robust z-score: 1.34

OR7G3
- TNF reporter robust z-score: -0.32

OR7G3
- TNF reporter robust z-score: 1.03

CD3D
- TNF reporter robust z-score: 0.07

CD3D
- TNF reporter robust z-score: 0.34

Further records follow.
target | TNF reporter robust z-score
LAPTM4A | 0.14
LAPTM4A | 0.43
LAPTM4A | -1.07
LAPTM4A | -0.66
PPP4R4 | 0.94
PPP4R4 | 0.09
PPP4R4 | -0.39
PPP4R4 | 0.96
SEC16A | -0.52
SEC16A | -0.75
SEC16A | -0.32
SEC16A | 0.35
PPAN | 1.73
PPAN | 1.08
PPAN | 1.12
PPAN | 1.09
